From PubChem BioAssay AID1259354 (Paczesny and Yang Labs, IUPUI and University of Michigan, 2018)
“And” between values parts separate entries of the source, which are not always exact repeats. Equal entries are not always repeated. Hit rate of the full screen: of about 78,000 compounds, about 1,800 (2.3%) were called active. This list was built around the results that the source calls inconclusive (neither active nor inactive); the mix of calls is not that of the screen. Rule as the data show it: active = inhibition above about 30%; inconclusive = mostly about 10% to 28%; inactive = weaker than that.

Chains of the proteins cited; added tags and fusions are not shown. Lines headed by an entry give the natural chain unless they say otherwise; changes in a name come on top.
UniProt Q01638: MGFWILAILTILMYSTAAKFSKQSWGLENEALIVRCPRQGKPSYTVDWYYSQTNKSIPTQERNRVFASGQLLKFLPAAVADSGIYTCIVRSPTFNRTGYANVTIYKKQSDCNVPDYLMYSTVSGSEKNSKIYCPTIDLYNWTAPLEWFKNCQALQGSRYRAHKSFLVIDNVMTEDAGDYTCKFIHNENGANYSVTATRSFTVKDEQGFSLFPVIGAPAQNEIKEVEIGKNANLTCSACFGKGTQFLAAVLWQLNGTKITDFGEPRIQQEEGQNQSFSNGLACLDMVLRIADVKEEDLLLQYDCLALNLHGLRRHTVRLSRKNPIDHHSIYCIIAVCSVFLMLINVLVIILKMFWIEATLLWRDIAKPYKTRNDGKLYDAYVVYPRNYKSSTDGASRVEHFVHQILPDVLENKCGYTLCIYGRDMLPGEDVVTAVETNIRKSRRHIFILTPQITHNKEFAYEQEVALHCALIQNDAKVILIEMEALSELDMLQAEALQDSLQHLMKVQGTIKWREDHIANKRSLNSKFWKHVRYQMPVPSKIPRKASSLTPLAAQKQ

Target: Interleukin-1 receptor-like 1 (Homo sapiens) (UniProt Q01638)
Assay: blocks human ST2 binding to IL-33, primary screen, biochemical, AlphaLISA (AID 1259354)
Details: AlphaLISA ST2-Fc/biotin-IL-33 interaction, 1 h; at 17 µM, stronger effect = higher value

| Structure (SMILES) | inhibition |
| --- | --- |
| CNc1ncnc2c1C(c1cccc([N+](=O)[O-])c1)c1c(NC)ncnc1O2 | inactive |
| CC(C)CC(Nc1nc(-c2cccnc2)nc2c1CNC2)c1ncnn1C (stereo not given) | inactive |
| O=C(CN1C(=O)/C(=C\c2cccc(Cl)c2)Sc2ccccc21)N1CCCC1 | inconclusive: 22% |
| Cc1ccc(N2CN=c3s/c(=C\c4cccnc4)c(=O)n3C2)cc1 | active: 30% |
| Cc1cccc(NC(=O)c2ccc3c(c2SCCO)C(=O)c2ccccc2C3=O)c1 | inconclusive: 10% |
| CC1=C(C(=O)OC(C)C)C(c2cccc(F)c2)N2C(=O)CCSC2=N1 (stereo not given) | inconclusive: 11% |
| N#CC1=C(N)OC2=C(CN(Cc3ccccc3)C/C2=C\c2cccnc2)C1c1cccnc1 (stereo not given) | inconclusive: 17% |
| CC(C)CN(CC(C)C)C(=O)Nc1ccccc1 | inconclusive: 12% |
| CCC/C=C/c1ccc(-c2nn[nH]n2)cc1 | inconclusive: 26% |
| C=CCNC(=O)C1CC(=O)N(C2CCCCCC2)C1 (stereo not given) | inactive |
| COc1ccc(CCC(=O)NCc2nc3cccnc3n2Cc2ccc(OC)cc2)cc1 | inconclusive: 10% |
| Cc1c(Br)cc(C(=O)N2CCOCC2)c(C)c1C | inconclusive: 11% |
| CCCCNC(=O)C1(O)c2cc(Br)ccc2NC(=O)N1c1ccc(Cl)cc1 (stereo not given) | inconclusive: 13% |
| COc1cc(C=Nc2ccc(C(C)=O)cc2)cc(OC)c1OC | inconclusive: 13% |
| CSc1ccccc1C(=O)N1CCC(C(Cc2ccccc2F)N(C)C(=O)c2cccs2)CC1 (stereo not given) | inconclusive: 16% |
| Cc1cc(C)cc(CSCC(=O)N2CCC(C(N)=O)CC2)c1 | inconclusive: 10% |
| COC(=O)[C@@H]1Cc2ncn(Cc3ccc(Cl)cc3)c2CN1Cc1cccc(C#N)c1 | inconclusive: 10% |
| Cc1ccc(-n2c(SC(C)c3ccccc3)nc3c(c2=O)SCC3)cc1 (stereo not given) | active: 31% and inconclusive: 13% |
| COc1cccc(C2=NN(C(=O)Cc3ccc([N+](=O)[O-])cc3)C(O)(C(F)(F)F)C2)c1 (stereo not given) | inactive |
| CCN1CCN(CCCNC(=O)c2ccc3c(c2)N(Cc2ccc(C)cc2)CCS3)CC1 | inconclusive: 16% |
| CC(=O)Nc1ccc(S(=O)(=O)N2CCN(c3nc(C)cc(Nc4ccc(C)cc4)n3)CC2)cc1 | inconclusive: 15% |
| CC(=O)c1ccc(N2CCN(c3ncnc4c3cnn4-c3cccc(C)c3)CC2)cc1 | inconclusive: 14% |
| Cc1cccc(CN2CCN(C(=O)CCn3cncn3)CC2=O)c1 | inconclusive: 11% |
| Nc1ccsc1C(=O)N1CCCC(CCc2ccccc2F)C1 (stereo not given) | inconclusive: 10% |
| COc1ccccc1N1CCN(CC(O)COc2cc(C)ccc2C(C)C)CC1 (stereo not given) | inactive |

Among those listed so far, these have a Cl atom:

| Structure (SMILES) | inhibition |
| --- | --- |
| O=C(CN1C(=O)/C(=C\c2cccc(Cl)c2)Sc2ccccc21)N1CCCC1 | inconclusive: 22% |
| CCCCNC(=O)C1(O)c2cc(Br)ccc2NC(=O)N1c1ccc(Cl)cc1 (stereo not given) | inconclusive: 13% |
| COC(=O)[C@@H]1Cc2ncn(Cc3ccc(Cl)cc3)c2CN1Cc1cccc(C#N)c1 | inconclusive: 10% |
